Data published in patent US20260115209A1, “COMBINATION THERAPY INCLUDING COX-2 INHIBITOR FOR THE TREATMENT OF CANCER” (THE REGENTS OF THE UNIVERSITY OF CALIFORNIA, priority 2022, published 2026).
Some results were stated once for a whole list of compounds, not compound by compound.

Tested on: WiDr cells
Assay: Cell viability assay, two-drug combinations with a BRAF inhibitor, combination index
Assay type: cell-based
Conditions: SRC inhibitor combined with the BRAF inhibitor (vemurafenib), Bliss model, CI>0 = synergy, FIG. 2A

With COc1cc(Nc2c(C#N)cnc3cc(OCCCN4CCN(C)CC4)c(OC)cc23)c(Cl)cc1Cl [bosutinib, 4-(2,4-dichloro-5-methoxyanilino)-6-methoxy-7-[3-(4-methylpiperazin-1-yl)propoxy]quinoline-3-carbonitrile] the “combination index (CI) score” value was greater than 2.8.
